# Experimental data reported in PubChem BioAssay AID2685 (National Center for Advancing Translational Sciences (NCATS), 2010).
# Some of the results follow. Shown are side measurements of this screen, not its main read-out; they come without a call. Compounds called inactive in the main read-out are mostly missing here. Potencies come from curve fits of mixed quality, noted in brackets.
# Experiment: qHTS Assay for Lipid Storage Modulators in Drosophila S3 Cells;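 as to cell number change: cells counted by Cell Tracker Red CMTPX staining in the red channel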
# Settings: BODIPY lipid droplet fluorescence, 18-24 h; for cell number change: measured here: cell count max response, cells fed with added oleic acid
# In short: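 Drosophila S3 cells loaded with oleic acid (400 uM, as added) and compounds at several concentrations; lipid droplets imaged by 488-nm laser-scanning cytometry, 500–530 nm intensity and object ratio to cell channel. Percent activity normalized to 20 uM Triacsin C.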
# [1] = measured here: lipid fluorescence (Fed channel) AC50, cells fed with added oleic acid
# [2] = measured here: cell number channel AC50, cells fed with added oleic acid
Structure (SMILES),cell number change,AC50 [1],AC50 [2]
Cc1ccc(C)c(S(=O)(=O)N2CCCOC2CNC(=O)C(=O)NCc2cccnc2)c1 (centres undefined),-17.1%,"11.6 nM [falling, full curve]",
COc1ccc(NC(=O)CC2C(=O)N(c3ccc(Cl)cc3)C(=S)N2NC(=O)c2cccc(F)c2)cc1 (centres undefined),7.33%,"116 nM [rising, full curve, poor fit]",
CCN1C(=O)CC(NCc2ccc3c(c2)OCO3)C1=O (centres undefined),-17.2%,,
CCOc1nc(-c2ccc(OC)cc2)ccc1-c1noc(C)n1,,"2060 nM [rising, partial curve]","2310 nM [rising, partial curve]"
Cc1ccc(CNC(=O)Cn2c(=O)c3sccc3n(Cc3ccc([N+](=O)[O-])cc3)c2=O)cc1,0.151%,,
O=c1c2ccccc2nc(SCc2cccc(F)c2)n1Cc1ccco1,115%,"2060 nM [rising, partial curve]","11600 nM [rising, partial curve]"
Cc1ccc(Cc2c(C)nc3nc(SCC(=O)NCCCN4CCCCCC4)nn3c2C)cc1,72.4%,"29100 nM [rising, single point]","29100 nM [rising, single point]"
O=S(=O)(c1ccc(Oc2ccc(Br)cc2F)nc1)N1CCCCC1,-23%,"651 nM [rising, full curve, poor fit]",
CCOC(=O)c1ncn2c1[C@@H]1CCNC1C(=O)c1cc(OC)ccc1-2 (some centres undefined),17.2%,"5800 nM [rising, full curve, poor fit]",
COc1ccc(-c2noc(CCCC(=O)Nc3ccc(C(N)=O)cc3)n2)cc1,-14.6%,"5.17 nM [falling, full curve, poor fit]",
CC(C)(C)SCCNC(=O)/C=C/c1cccc([N+](=O)[O-])c1,-16.7%,"14600 nM [rising, partial curve]","651 nM [rising, partial curve, poor fit]"
COc1ccc(Cn2cccc(NC(=O)Nc3ccc(C#N)cc3)c2=O)cc1,-3.37%,"580 nM [falling, single point]",
COc1ccc(NC(=O)CN2C(=O)NC(c3ccccc3)(c3ccccc3)C2=O)cc1OC,-26.3%,,
COc1ccccc1CNC(=S)NCc1ccc(Cl)cc1,-23.8%,"29100 nM [falling, partial curve, poor fit]",
COc1cccc(N(Cc2nnc3n2CCCCC3)C(=O)Nc2ccccc2)c1,-1.1%,,
CCN(CC)S(=O)(=O)c1ccc(OC)c(NC(=O)C2CC(=O)N(c3ccc(C)cc3)C2)c1 (centres undefined),114%,,"29100 nM [rising, single point]"
COc1ccc(CNc2ccc(-c3ccccc3OC)nn2)cc1,,,"2060 nM [rising, partial curve, poor fit]"
CC(C)(O)C#Cc1ccc(CN2CCCC(CNC(=O)c3ccco3)C2)cc1 (centres undefined),-21.4%,,
COc1cc(/C=N\Nc2ccc([N+](=O)[O-])cc2)ccc1OCC(=O)Nc1ccc(C)c(C)c1,3.74%,"16400 nM [falling, single point]",
COc1ccccc1C(=O)NC(CCSC)C(=O)OC(C)C(N)=O (centres undefined),-2.44%,,

# Rewritten with tabs: entries from further up.
Structure (SMILES)	cell number change	AC50 [1]	AC50 [2]
CCN1C(=O)CC(NCc2ccc3c(c2)OCO3)C1=O (centres undefined)	-17.2%		
COc1ccc(Cn2cccc(NC(=O)Nc3ccc(C#N)cc3)c2=O)cc1	-3.37%	580 nM [falling, single point]	

# More compounds follow.

Structure (SMILES),cell number change,AC50 [1],AC50 [2]
O=C(NCc1ccc(F)cc1)C(c1ccccc1)N(C(=O)c1csnn1)C1CCCC1 (centres undefined),22.1%,,"6510 nM [rising, single point]"
CC1CCN(C(=O)CN(C2CCCCC2)S(C)(=O)=O)CC1,-35.6%,"29100 nM [falling, single point]",
CCNC(=S)N(Cc1ccccc1)Cc1nc2ccccc2c(=O)[nH]1,8.25%,,"6510 nM [rising, single point]"
Cc1cc(/C=N/n2cnnc2)c(C)n1-c1ccc(Cl)cc1,-12.6%,,"4610 nM [rising, single point]"
Cc1ccccc1N=C1NC(=O)CS1,-1.7%,"2310 nM [falling, partial curve, poor fit]",
N/C(=N\OC(=O)c1cccc(Br)c1)c1ccc([N+](=O)[O-])cc1,-0.263%,"3260 nM [falling, full curve]",
Cc1ccc(/C=N/Nc2ccc(F)cc2)s1,-34.2%,,"13000 nM [falling, single point]"
CC(C)c1ccc(Nc2nnns2)cc1,8.09%,"6510 nM [falling, single point]",
CCN(CC)CCOC(=O)C(Cc1cccc2ccccc12)CC1CCCO1 (centres undefined),-18.1%,"5170 nM [falling, full curve, poor fit]",
CCN1C(=O)[C@H]2[C@@H](c3ccc(-c4ccc(OC)cc4)cc3)N3CCCC[C@@]3(C(=O)OC)[C@H]2C1=O,-1.65%,,"326 nM [rising, partial curve, poor fit]"
Cc1ccc(SC(=O)COc2ccccc2C)cc1,11.5%,"651 nM [falling, single point]","130 nM [falling, full curve, poor fit]"
CN(c1ccccc1)C(c1ccc(F)cc1)c1nnnn1C1CCCC1 (centres undefined),,"6510 nM [rising, single point]",
CCOC(=O)N1CCN(S(=O)(=O)c2cccc3cccnc23)CC1,26.8%,,"1640 nM [rising, full curve, poor fit]"
COc1cccc(CNc2ccc3[nH]c(=O)[nH]c3c2)c1OCc1ccccc1Cl,-33.8%,,"8200 nM [falling, partial curve, poor fit]"
N#Cc1ccc(OCC(=O)OCC(=O)Nc2ccc(N3CCOCC3)cc2)cc1,-40.8%,"18400 nM [falling, single point]","2590 nM [falling, full curve]"
CCn1nc(C)c(/C=N/NC(=O)Cn2nccc2C)c1C,-0.804%,,
C=CCNC(=O)C1CC2Cn3c(nc4cc(Cl)c(Cl)cc43)C2N1C (centres undefined),-11.1%,"130 nM [rising, full curve, poor fit]",
CCCOc1ccc(C(=O)NC(=S)N2CCN(c3cc4c(cc3F)c(=O)c(C(=O)O)cn4CC)CC2)cc1,164%,,"14600 nM [rising, partial curve]"
COC(=O)C(Cc1ccccc1)NCC(=O)Nc1cccc(Cl)c1C (centres undefined),24.6%,"5800 nM [rising, partial curve]",
CC(C)n1cnc2c(NCc3ccccc3)cc(Cc3ccc(F)cc3)cc21,-26%,"259 nM [falling, partial curve, poor fit]","206 nM [falling, full curve, poor fit]"

# Entries above that have a Cl atom:
Structure (SMILES),cell number change,AC50 [1],AC50 [2]
COc1ccc(NC(=O)CC2C(=O)N(c3ccc(Cl)cc3)C(=S)N2NC(=O)c2cccc(F)c2)cc1 (centres undefined),7.33%,"116 nM [rising, full curve, poor fit]",
COc1ccccc1CNC(=S)NCc1ccc(Cl)cc1,-23.8%,"29100 nM [falling, partial curve, poor fit]",
Cc1cc(/C=N/n2cnnc2)c(C)n1-c1ccc(Cl)cc1,-12.6%,,"4610 nM [rising, single point]"
COc1cccc(CNc2ccc3[nH]c(=O)[nH]c3c2)c1OCc1ccccc1Cl,-33.8%,,"8200 nM [falling, partial curve, poor fit]"
C=CCNC(=O)C1CC2Cn3c(nc4cc(Cl)c(Cl)cc43)C2N1C (centres undefined),-11.1%,"130 nM [rising, full curve, poor fit]",
COC(=O)C(Cc1ccccc1)NCC(=O)Nc1cccc(Cl)c1C (centres undefined),24.6%,"5800 nM [rising, partial curve]",

# Going on with the list:

Structure (SMILES),cell number change,AC50 [1],AC50 [2]
C1=CN2CCC1C(c1ccccc1)C2 (centres undefined),-15.9%,"3660 nM [falling, full curve, poor fit]",
COC(=O)CN(n1cnnc1)S(=O)(=O)c1ccccc1,2.74%,,"5800 nM [falling, single point]"
C#CCN1C(=O)C(O)(CC(=O)/C=C/c2ccco2)c2ccccc21 (centres undefined),-29.6%,,
O=C(Nc1cccc2ncccc12)c1ccc2c(c1)OCCO2,3.52%,"9200 nM [rising, partial curve]",
CN1C(=S)SC(C)(C)C1/[N+]([O-])=C/c1cccnc1 (centres undefined),14.2%,"231 nM [rising, full curve, poor fit]",
COc1ccccc1-n1c(SCC(=O)Nc2ccc3c(c2)OCO3)nc2c(c1=O)SCC2,97.4%,"326 nM [rising, full curve]","411 nM [rising, full curve]"
CCCCN(C(=O)c1c(CC)noc1C)c1c(N)n(CC(C)C)c(=O)[nH]c1=O,-52.7%,"820 nM [falling, full curve]","1160 nM [falling, full curve, poor fit]"
COc1ccccc1CCNC(=O)c1ccccc1SCC(=O)N1CCCC1,6.18%,"6510 nM [rising, single point]","517 nM [falling, single point]"
CCOC(=O)C1CCN(C(=O)Cn2cnc3sc(C)c(S(=O)(=O)N4CCC(C)CC4)c3c2=O)CC1,,"820 nM [falling, full curve]",
COc1ccccc1-c1ccc(C(=O)O)o1,-15.3%,"25900 nM [falling, partial curve, poor fit]",
Cc1cc(C)nc(NS(=O)(=O)c2ccccc2)n1,4.05%,"29100 nM [rising, single point]",
c1coc(CNc2ncnc3sc4c(c23)CCCCC4)c1,-8.29%,"580 nM [rising, full curve, poor fit]",
CCn1nc(C(=O)Nc2ccc(S(=O)(=O)Nc3ncccn3)cc2)c2ccccc2c1=O,-13.2%,,"5800 nM [rising, single point]"
O=C(NCc1ccccc1)c1cccc(COc2cccc(Cl)c2)c1,0.297%,,
Cc1ccccc1OCC(=O)NNC(=O)C1CCCCC1C(=O)O (centres undefined),-0.23%,"29100 nM [rising, single point]",
Cc1cc(N=CC2=C(O)CCCC2=O)no1,2.92%,,
Cc1nc2c(c(=O)n1CCC1=CCCCC1)c1nc3ccccc3nc1n2/N=C/c1ccccc1,,"4610 nM [rising, partial curve, poor fit]",
CN(Cc1ccccc1)C(=O)COC(=O)CCNC(=O)c1ccccc1Cl,-55.7%,"164 nM [falling, full curve, poor fit]","259 nM [falling, full curve, poor fit]"
C=CCNC(=O)c1ccc(CSc2nc3ccccc3s2)cc1,1.08%,,
COC(=O)c1sccc1NC(=O)/C=C/c1ccc(Cl)cc1,,"411 nM [rising, full curve, poor fit]",
